# Assay results published in patent US4684645A, “Benzofused lactams as cholecystokinin antagonists” (Merck & Co., Inc., priority 1985, dated 1987).
# At least one compound was matched to its structure with a doubt left.
# Target: CCK receptor
# Assay: 125I-CCK-33 receptor binding (pancreas or brain preparation not given)
# Details: concentration dependent inhibition; tissue (rat pancreas or guinea pig brain) not stated; read-out: IC50, inhibition of specific 125I-CCK-33 binding
# Experimental: The biological activity of the compounds of Formula I have been evaluated using an ^125 I-CCK receptor binding assay and in vitro isolated tissue preparations.
# CCK-33 was radiolabeled with ^125 I-Bolton Hunter reagent (2000 Ci/mmole) as described by Sankara et al. (J. Biol. Chem. 254: 9349-9351, 1979). Receptor binding was performed according to Innis and Snyder (Proc. Natl. Acad. Sci. 77: 6917-6921, 1980) with the minor modification of adding the additional protease inhibitors, phenylmethane sulfonyl fluoride and o-phenanthroline. The latter two compounds have no effect on the ^125 I-CCK receptor binding assay.
# Male Sprague-Dawley rats (200-350 g) were sacrificed by decapitation. The whole pancreas was dissected free of fat tissue and was homogenized in 20 volumes of ice-cold 50 mM, Tris HCl (pH 7.7 at 25° C.) with a Brinkmann Polytron PT 10. The homogenates were centrifuged at 48,000 g for 10 min. […] The supernatant was aspirated and discarded, pellets were counted with a Beckman gamma 5000. […]
# Male Hartley guinea pigs (300-500 g) were sacrificed by decapitation and the brains were removed and placed in ice-cold 50 mM, Tris HCl plus 7.58 g/l Tritma-7.4 (pH 7.4 at 25° C.) Cerebral cortex was dissected and used as a receptor source. […] The supernatant was aspirated and discarded, pellets were counted with a Beckman gamma 5000.
smiles,measurement,value
CCOC(=O)C(CCc1ccccc1)NC1CCCc2ccccc2N(CC(=O)OC(C)(C)C)C1=O (stereo not shown) [1-t-Butoxycarbonylmethyl-3-(1-carboethoxy-3-phenyl-1-propyl)aminohexahydrobenzazocine-2-one],IC50,3000 nM
